# Assay results from patent publication US6376666B1 (Nauchno-Issledovatelsky Institut Farmakologii Rossiiskoi …, priority 1994, dated 2002).
# Experiment: in vivo
# Settings: iv
smiles,measurement,value
"CCN(CC)CC(=O)Nc1c(C)cccc1C [Lidocaine, lidocaine]",LD50,39.4 mg/kg
